PubChem BioAssay AID493246 – Drosophila RNAi Screening Center | 2011

- Test: 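Genes fly cells need to grow and stay alive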 (primary screen)
- System: Drosophila Kc and S2R+ cells
- Reagent: long dsRNA against Drosophila genes
- Read-out: 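Raw, unnormalised count of remaining cells in each well; per-plate z-scores of cell number underlie the calls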
- Direction: Kc cell number and S2R+ cell number: higher = more cells remaining
- Active means: 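Counted as a hit if cell number falls by a z-score of at least 3 within its plate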
In all, the deposit lists about 21,000 reagents; shown is a random part of those that have a named target and a result. Over the whole deposit, 429 (2%) got an active call. 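Values are raw and not normalised between plates; calls rest on per-plate z-scores that were not deposited.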 A plus sign joins genes that one reagent is predicted to hit. Reagent sequences are not shown. Not stated in the record: the amount of reagent, the time to read-out.

| gene knocked down | dsRNA | Kc cell number, rep 1 | Kc cell number, rep 2 | S2R+ cell number, rep 1 | S2R+ cell number, rep 2 | Call |
| --- | --- | --- | --- | --- | --- | --- |
| SMC3 (GeneID 32627) | DRSC20227 | 1.47e6 | 1.41e6 | 9.97e5 | 1.07e6 | inactive |
| CG5196 (GeneID 41522) | DRSC15735 | 1.44e6 | 1.54e6 | 1.38e6 | 1.51e6 | inactive |
| Psf1 (GeneID 38136) | DRSC08638 | 1.60e6 | 1.73e6 | 1.04e6 | 1.16e6 | inactive |
| CG8945 (GeneID 32693) | DRSC20129 | 1.44e6 | 1.47e6 | 1.06e6 | 1.17e6 | inactive |
| CG8945 (GeneID 32693) | DRSC20130 | 1.50e6 | 1.49e6 | 1.13e6 | 1.18e6 | inactive |
| CG5267 (GeneID 36875) | DRSC06928 | 1.59e6 | 1.56e6 | 1.22e6 | 1.34e6 | inactive |
| CG17191 (GeneID 43249) | DRSC15185 | 1.54e6 | 1.56e6 | 1.02e6 | 1.21e6 | inactive |
| MAN1 (GeneID 37838) | DRSC04342 | 1.31e6 | 1.39e6 | 1.09e6 | 1.17e6 | inactive |
| CG1486 (GeneID 33108) | DRSC20508 | 1.70e6 | 1.68e6 | 1.08e6 | 1.22e6 | inactive |
| Tti1 (GeneID 41189) | DRSC15163 | 1.40e6 | 1.42e6 | 1.30e6 | 1.39e6 | inactive |
| Octbeta3R (GeneID 3885573) | DRSC15351 | 1.41e6 | 1.46e6 | 1.31e6 | 1.36e6 | inactive |
| Octbeta3R (GeneID 3885573) | DRSC16191 | 1.54e6 | 1.57e6 | 1.21e6 | 1.26e6 | inactive |
| CG32259 (GeneID 317942) | DRSC08082 | 1.51e6 | 1.53e6 | 9.90e5 | 1.15e6 | inactive |
| CG15202 (GeneID 32052) | DRSC19649 | 1.61e6 | 1.62e6 | 1.10e6 | 1.25e6 | inactive |
| hh (GeneID 42737) | DRSC16965 | 1.74e6 | 1.73e6 | 1.00e6 | 1.14e6 | inactive |
| CG2577 (GeneID 32188) | DRSC19863 | 1.61e6 | 1.54e6 | 9.78e5 | 1.12e6 | inactive |
| CG5056 (GeneID 34406) | DRSC02808 | 1.47e6 | 1.55e6 | 1.25e6 | 1.38e6 | inactive |
| CG15653 (GeneID 37388) | DRSC04244 | 1.77e6 | 1.91e6 | 1.19e6 | 3.18e5 | inactive |
| CG5516 (GeneID 41940) | DRSC15826 | 1.37e6 | 1.57e6 | 1.08e6 | 1.20e6 | inactive |
| Or85c (GeneID 41008) | DRSC16766 | 1.68e6 | 1.94e6 | 1.23e6 | 1.37e6 | inactive |
| CG14464 (GeneID 3355132) | DRSC07760 | 1.44e6 | 1.33e6 | 9.71e5 | 1.21e6 | inactive |
| CG14420 (GeneID 31284) | DRSC17917 | 1.58e6 | 1.65e6 | 9.73e5 | 1.10e6 | inactive |
| GstS1 (GeneID 36927) | DRSC07436 | 1.23e6 | 1.31e6 | 7.95e5 | 7.44e5 | inactive |
| TfIIA-L (GeneID 43284) | DRSC16882 | 4.65e5 | – | 7.81e5 | – | inactive |
| Plp (GeneID 3772382) | DRSC10006 | 1.48e6 | 1.72e6 | 1.33e6 | 1.50e6 | inactive |
| Plp (GeneID 3772382) | DRSC10333 | 1.30e6 | 1.50e6 | 1.36e6 | 1.41e6 | inactive |
| Plp (GeneID 3772382) | DRSC10700 | 1.53e6 | 1.56e6 | 1.19e6 | 1.28e6 | inactive |
| ste24a (GeneID 36908) | DRSC07314 | 1.63e6 | 1.58e6 | 1.22e6 | 1.33e6 | inactive |
| Pex13 (GeneID 36462) | DRSC06877 | 1.53e6 | 1.59e6 | 1.11e6 | 1.15e6 | inactive |
| CG17124 (GeneID 34485) | DRSC02580 | 1.71e6 | 1.68e6 | 1.10e6 | 1.27e6 | inactive |
| Miox (GeneID 39391) | DRSC10747 | 1.30e6 | 1.36e6 | 1.26e6 | 1.35e6 | inactive |
| Marf1 (GeneID 49895) | DRSC03747 | 1.55e6 | 1.65e6 | 1.24e6 | 2.92e5 | inactive |
| Marf1 (GeneID 49895) | DRSC03774 | 5.14e5 | – | 8.68e5 | – | inactive |
| TTLL15 (GeneID 41300) | DRSC15543 | 1.65e6 | 1.81e6 | 1.21e6 | 1.28e6 | inactive |
| Cyp318a1 (GeneID 32172) | DRSC19784 | 1.57e6 | 1.50e6 | 1.04e6 | 1.18e6 | inactive |
| CG9410 + CG15908 | DRSC04976 | 1.51e6 | 1.58e6 | 1.28e6 | 1.40e6 | inactive |
| CG9410 + CG15908 | DRSC05001 | 1.63e6 | 1.70e6 | 1.41e6 | 1.51e6 | inactive |
| Gr68a (GeneID 39324) | DRSC10803 | 1.28e6 | 1.45e6 | 1.23e6 | 1.37e6 | inactive |

Individual results from the list:
CG32259 (GeneID 317942) [DRSC08082], Kc cell number, rep 1: 1.51e6
hh (GeneID 42737) [DRSC16965], Call: inactive
Plp (GeneID 3772382) [DRSC10700], Call = inactive
Under “S2R+ cell number, rep 1”, CG17124 (GeneID 34485) [DRSC02580] is entered as 1.10e6
Or85c (GeneID 41008) [DRSC16766], S2R+ cell number, rep 2 → 1.37e6
Value of CG1486 (GeneID 33108) [DRSC20508] under “Kc cell number, rep 1”: 1.70e6

Additional reagents:
| gene knocked down | dsRNA | Kc cell number, rep 1 | Kc cell number, rep 2 | S2R+ cell number, rep 1 | S2R+ cell number, rep 2 | Call |
| --- | --- | --- | --- | --- | --- | --- |
| nes (GeneID 40093) | DRSC11375 | 1.56e6 | 1.62e6 | 1.30e6 | 1.45e6 | inactive |
| CG8641 (GeneID 38771) | DRSC11028 | 1.31e6 | 1.22e6 | 1.25e6 | 1.22e6 | inactive |
| ida (GeneID 45574) | DRSC08163 | 1.57e6 | 1.47e6 | 8.94e5 | 1.16e6 | inactive |
| Nnk (GeneID 42143) | DRSC15274 | 1.42e6 | 1.50e6 | 1.08e6 | 1.12e6 | inactive |
| CG5043 (GeneID 35046) | DRSC02805 | 1.50e6 | 1.56e6 | 1.20e6 | 1.29e6 | inactive |
| CG8097 (GeneID 32495) | DRSC20079 | 1.47e6 | 1.49e6 | 1.07e6 | 1.12e6 | inactive |
| CG34204 (GeneID 5740630) | DRSC03897 | 5.42e5 | – | 8.44e5 | – | inactive |
| Nedd4 (GeneID 39958) | DRSC11234 | 1.54e6 | 1.59e6 | 1.17e6 | 1.36e6 | inactive |
| CG12723 (GeneID 32271) | DRSC19499 | 1.57e6 | 1.52e6 | 1.04e6 | 1.20e6 | inactive |
| pyd3 (GeneID 40916) | DRSC15459 | 1.53e6 | 1.74e6 | 1.10e6 | 1.25e6 | inactive |
| unc79 (GeneID 42310) | DRSC15746 | 1.52e6 | 1.64e6 | 1.13e6 | 1.19e6 | inactive |
| pasha (GeneID 43728) | DRSC15295 | 4.65e5 | – | 7.25e5 | – | inactive |
| sll (GeneID 42115) | DRSC16271 | 1.50e6 | 1.55e6 | 1.24e6 | 1.26e6 | inactive |
| X11Lbeta (GeneID 31997) | DRSC18156 | 1.63e6 | 1.69e6 | 9.80e5 | 1.15e6 | inactive |
| X11Lbeta (GeneID 31997) | DRSC18158 | 1.55e6 | 1.56e6 | 1.04e6 | 1.17e6 | inactive |
| mTerf5 (GeneID 42182) | DRSC16209 | 1.54e6 | 1.61e6 | 1.31e6 | 1.34e6 | inactive |
| Prosalpha6T (GeneID 34726) | DRSC02873 | 1.60e6 | 1.62e6 | 1.33e6 | 1.51e6 | inactive |
| beat-Vc (GeneID 41575) | DRSC12927 | 1.43e6 | 1.85e6 | 1.07e6 | 1.19e6 | inactive |
| beat-Vc (GeneID 41575) | DRSC14849 | 1.93e6 | 1.96e6 | 1.31e6 | 1.41e6 | inactive |
| CG14913 (GeneID 34532) | DRSC02397 | 1.56e6 | 1.76e6 | 1.37e6 | 1.48e6 | inactive |
| Syx16 (GeneID 33034) | DRSC20507 | 1.43e6 | 1.50e6 | 1.02e6 | 1.21e6 | inactive |
